Drawing on PubChem BioAssay AID1487 (National Center for Advancing Translational Sciences (NCATS), 2009), this text covers AC50 for 32 molecules.

“And” between values parts separate entries of the source, which are not always exact repeats. Equal values may be shown once. This is one part of the list. Shown are side measurements of this screen, not its main read-out; they come without a call. Compounds called inactive in the main read-out are mostly missing here. The note in brackets gives the kind of curve behind each potency; many fits are weak.

The test in a line: qHTS Assay for Modulators of Lamin A Splicing. The note with it: HeLa LMNA splicing GFP/RFP minigene ratio, 48 h. The method in brief:
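S3 HeLa stable clones carrying a lamin A-EGFP splicing minigene plus DsRed2 were seeded at 600 cells/well in Opti-MEM with 2% FBS, pin-dosed and incubated 48 h at 37°C. Acumen cytometry (488 nm) gave the GFP/RFP total-intensity ratio.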

[1] abbreviates: measured here: GFP splicing reporter channel.
Where [2] appears, read: measured here: RFP viability control channel.

For `CCOC(=O)c1c(S(=O)(=O)N2CCCC(C(=O)Nc3ncccc3C)C2)c(C)n(C)c1C` (stereo not drawn), the AC50 is 0.00316 µM [falling, full curve, poor fit] under setting [1] and 0.00316 µM [falling, full curve, poor fit] under setting [2]. Take `COc1ccc(NC(=O)[C@@H](NC(N)=O)C(C)C)cc1Cl`: the AC50 under setting [1] was 3.16 µM [rising, partial curve]. For the molecule `Cc1ccc(NC(=O)CCc2c(C)nn(-c3ccc(N4CCOCC4)nn3)c2C)cc1F`, the AC50 under setting [2] is 5.62 µM [falling, partial curve, poor fit].

`CCn1c(-c2cc(-c3ccc(C)cc3)nc3ccccc23)n[nH]c1=S`: the AC50 under setting [2] is 35.5 µM [rising, single point]. As to `Cc1nc(N)sc1C(=O)N/N=C/c1ccco1`, the AC50 under setting [1] was 0.158 µM [rising, full curve, poor fit] and the AC50 under setting [2] was 0.0794 µM [rising, partial curve, poor fit]. As to `COc1cccc(-c2ccc3ncnc(NCc4ccccc4OC)c3c2)c1`, the AC50 reads like this: under setting [1], 12.6 µM [falling, partial curve]; under setting [2], 17.8 µM [falling, single point]. For `O=C1c2ccccc2NC(c2ccc(-c3cccc(Cl)c3)o2)N1O` (stereo not drawn), the AC50 under setting [2] is 35.5 µM [rising, single point]. On to `Cc1ccc(S(=O)(=O)N[C@@H](Cc2ccccc2)C(=O)CCl)cc1`, for which the AC50 under setting [1] is 2.82 µM [falling, full curve]; the AC50 under setting [2] is 7.08 µM [falling, partial curve] and 2.82 µM [falling, full curve]. For `Cn1cccc1/C=C1\SC(=S)N(NC(=O)c2ccccc2)C1=O`, the AC50 under setting [2] was 22.4 µM [rising, partial curve]. Same read-out and setting: then `CCCOC(=O)CN1C(=O)c2ccc(C(=O)OCCC)cc2C1=O`, with 0.794 µM [falling, single point]. Still for that read-out and setting: then `CCCCN(C)CCNC(=O)Cn1ncc2c([nH]c3ccccc32)c1=O`, with 31.6 µM [rising, partial curve, poor fit]; and `COc1ccc(NC(=O)c2csc(Cc3ccccc3)n2)cc1`, with 17.8 µM [rising, partial curve]. With `O=C(Nc1cnc2sc3c(n2c1=O)CCCC3)c1ccc(F)cc1`, the AC50 by setting is: under setting [1], 15.8 µM [rising, single point]; under setting [2], 31.6 µM [rising, single point].

As to `CC(=O)O[C@]1(C(C)=O)CCC2C3CCC4=CC(=O)CCC4(C)C3(F)C(O)CC21C` (stereo partly drawn), the AC50 under setting [2] is 0.0126 µM [falling, full curve, poor fit].

Take `Cc1ccc(S(=O)(=O)N2CCC(=O)N(C(COCc3cccc(Cl)c3)C(C)C)CC2)cc1` (stereo not drawn): the AC50 is 35.5 µM [rising, single point] under setting [1] and 28.2 µM [rising, single point] under setting [2]. Regarding `CN(C)S(=O)(=O)c1ccc(NC(=O)c2cc3ccccc3o2)cc1`, the AC50 was 35.5 µM [rising, single point] under setting [1] and 31.6 µM [rising, single point] under setting [2]. Regarding `Oc1nc(Nc2cccc(Cl)c2)sc1/C=C1\C=Nc2ccccc21`, under setting [1], the AC50 is 31.6 µM [falling, single point].

Take `Cc1ccc(C)c(NC(=O)Cn2nnc(C(=O)NCc3ccco3)c2N)c1`: the AC50 under setting [2] is 11.2 µM [rising, partial curve].

Consider `O=C(O)CCNC(=O)c1ccc(N=Nc2ccc(O)c(C(=O)O)c2)cc1`, for which the AC50 is, setting by setting: under setting [1], 0.00794 µM [falling, full curve, poor fit]; under setting [2], 5.62 µM [rising, partial curve, poor fit]. Take `COc1ccc2c(c1)OC/C(=C/c1ccc(OC)c(OC)c1)C2=O`: the AC50 is, setting by setting: under setting [1], 11.2 µM [falling, partial curve]; under setting [2], 17.8 µM [falling, partial curve].

As to `COc1ccccc1-c1nc(NCc2cccnc2)c2ccccc2n1`, the AC50 under setting [1] was 14.1 µM [falling, partial curve].

`Cc1cc(C)c2c(n1)nn1c(C)c(CCC(=O)NCc3ccco3)c(C)nc21`: the AC50 under setting [2] was 0.01 µM [rising, full curve, poor fit]. `Cc1nn(C)c2c1c(C(F)(F)F)cc(=O)n2C(C)C(=O)N1CCN(c2ccccc2)CC1` (stereo not drawn): the AC50 is 0.00794 µM [falling, full curve, poor fit] under setting [1] and 0.00891 µM [falling, full curve, poor fit] under setting [2]. `COC(=O)c1c(-c2ccc(F)cc2)csc1NC(=O)c1ccco1`: the AC50 is 12.6 µM [rising, partial curve] under setting [1] and 22.4 µM [rising, single point] under setting [2]. In the case of `CC(NC(=O)COC(=O)c1cc(NS(=O)(=O)c2ccc(Cl)c([N+](=O)[O-])c2)ccc1O)C1CC2CCC1C2` (stereo not drawn), the AC50 was 11.2 µM [falling, partial curve] under setting [1] and 11.2 µM [falling, partial curve, poor fit] under setting [2]. As to `Cc1ccc(Oc2ncnc(N)c2[N+](=O)[O-])cc1`, the AC50 under setting [1] is 11.2 µM [falling, partial curve, poor fit].

For `O=C(COC(=O)[C@@H]1CC(O)CN1S(=O)(=O)c1ccc2c(c1)OCCO2)Nc1ccccc1F` (stereo partly drawn), the AC50 under setting [2] was 0.0282 µM [falling, full curve, poor fit]. Turning to `Cc1ccc(CC(=O)Nc2ccccc2-c2ccccc2)cc1C`, the AC50 under setting [1] is 35.5 µM [rising, single point] and the AC50 under setting [2] was 35.5 µM [rising, single point]. As for `CCN(CC)S(=O)(=O)c1ccc2oc(C(=O)NC3CCCc4ccccc43)c(C)c2c1` (stereo not drawn), the AC50 is 6.31 µM [rising, partial curve] under setting [1] and 10 µM [rising, partial curve] under setting [2]. For `O=[n+]1cc(-c2ccc(Cl)cc2)n([O-])c2c1CCCCC2`, the AC50 reads like this: under setting [1], 11.2 µM [rising, partial curve, poor fit]; under setting [2], 11.2 µM [rising, partial curve, poor fit]. For `COc1ccc(-c2nc(SCC(=O)Nc3cccc(C(C)=O)c3)n[nH]2)cc1`, the AC50 under setting [2] was 0.891 µM [rising, full curve, poor fit]. For the molecule `COc1cccc(CN2CCN(C(=O)c3ccc(-c4ccccc4)cc3)CC2)c1`, the AC50 under setting [1] is 10 µM [falling, partial curve, poor fit] and the AC50 under setting [2] was 0.00447 µM [falling, full curve, poor fit].
